These are yes or no findings as the source states them, for the method shown. Binding seen in cells or lysates may run through a third protein. Some binding calls cover weakened binding; strength is not graded here. For some assays here: Where a sequence is shown, tags or fusion partners need not be part of it.
Columns and labels:
[1] = molecular target: T1, His-tagged PSF (polypyrimidine tract-binding protein-associated splicing factor) (UniProt P23246); experiment: condition: only cells without hypoxia (normoxic control); co-IP; as a1, but cells left in normoxic condition (parallel control without hypoxia)
T1 sequence: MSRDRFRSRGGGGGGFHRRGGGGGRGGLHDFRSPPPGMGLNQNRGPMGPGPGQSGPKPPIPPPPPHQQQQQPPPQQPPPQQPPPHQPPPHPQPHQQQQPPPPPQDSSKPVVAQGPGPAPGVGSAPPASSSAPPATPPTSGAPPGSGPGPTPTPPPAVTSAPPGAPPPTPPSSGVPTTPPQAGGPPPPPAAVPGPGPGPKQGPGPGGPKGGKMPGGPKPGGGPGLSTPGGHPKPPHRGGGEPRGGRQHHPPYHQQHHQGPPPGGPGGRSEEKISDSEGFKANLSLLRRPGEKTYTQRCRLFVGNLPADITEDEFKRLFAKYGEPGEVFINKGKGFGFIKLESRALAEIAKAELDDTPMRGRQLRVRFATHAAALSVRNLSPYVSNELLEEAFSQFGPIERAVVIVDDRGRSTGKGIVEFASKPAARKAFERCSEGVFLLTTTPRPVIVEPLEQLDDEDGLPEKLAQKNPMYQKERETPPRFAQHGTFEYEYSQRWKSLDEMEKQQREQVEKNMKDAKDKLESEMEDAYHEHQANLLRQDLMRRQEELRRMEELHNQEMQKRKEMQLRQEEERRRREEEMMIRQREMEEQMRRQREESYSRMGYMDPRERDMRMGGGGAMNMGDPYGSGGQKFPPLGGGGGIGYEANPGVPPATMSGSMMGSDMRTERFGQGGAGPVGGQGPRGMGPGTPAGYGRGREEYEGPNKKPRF

The chains behind the UniProt entries cited, without tags or fusion partners.
UniProt Q16665: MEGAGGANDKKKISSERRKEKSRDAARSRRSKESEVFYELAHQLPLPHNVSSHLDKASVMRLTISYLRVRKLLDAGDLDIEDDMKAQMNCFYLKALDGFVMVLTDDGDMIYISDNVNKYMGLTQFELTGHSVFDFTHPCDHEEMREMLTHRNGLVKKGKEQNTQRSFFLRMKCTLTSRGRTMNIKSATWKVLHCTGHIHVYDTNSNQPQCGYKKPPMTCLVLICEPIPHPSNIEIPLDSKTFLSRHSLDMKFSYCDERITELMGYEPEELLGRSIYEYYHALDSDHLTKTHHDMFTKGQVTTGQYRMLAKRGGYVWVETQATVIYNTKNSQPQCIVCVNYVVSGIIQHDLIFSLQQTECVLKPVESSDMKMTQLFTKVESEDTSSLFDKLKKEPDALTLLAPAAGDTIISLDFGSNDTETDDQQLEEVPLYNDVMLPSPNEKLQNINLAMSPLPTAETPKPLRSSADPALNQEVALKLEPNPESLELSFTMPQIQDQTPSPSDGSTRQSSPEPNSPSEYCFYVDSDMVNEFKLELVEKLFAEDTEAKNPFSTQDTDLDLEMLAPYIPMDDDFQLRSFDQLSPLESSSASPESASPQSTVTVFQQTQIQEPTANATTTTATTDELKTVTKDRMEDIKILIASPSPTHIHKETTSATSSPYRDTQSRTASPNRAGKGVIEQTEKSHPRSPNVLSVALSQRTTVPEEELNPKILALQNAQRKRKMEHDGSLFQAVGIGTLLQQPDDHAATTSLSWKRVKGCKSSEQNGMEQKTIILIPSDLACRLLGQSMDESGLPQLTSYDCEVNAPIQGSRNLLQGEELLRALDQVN

[2] = molecular target: T1, His-tagged PSF (polypyrimidine tract-binding protein-associated splicing factor); experiment: co-IP; HRMECs co-transfected with pCIneo-HIF-1α-HA and pcDNA3.1-His-PSF, 36 h, then hypoxia 3 h; RIPA lysis; whole cell lysates precipitated with anti-His or anti-HA antibody and protein G/A-Sepharose; blot with anti-HA or anti-His
[3] = molecular target: T2, PSF (polypyrimidine tract-binding protein-associated splicing factor), endogenous (human (endogenous in HRMECs)) (UniProt P23246); experiment: co-IP; as a5, but nuclear cell lysates from control HRMECs (no hypoxia)
T2 sequence: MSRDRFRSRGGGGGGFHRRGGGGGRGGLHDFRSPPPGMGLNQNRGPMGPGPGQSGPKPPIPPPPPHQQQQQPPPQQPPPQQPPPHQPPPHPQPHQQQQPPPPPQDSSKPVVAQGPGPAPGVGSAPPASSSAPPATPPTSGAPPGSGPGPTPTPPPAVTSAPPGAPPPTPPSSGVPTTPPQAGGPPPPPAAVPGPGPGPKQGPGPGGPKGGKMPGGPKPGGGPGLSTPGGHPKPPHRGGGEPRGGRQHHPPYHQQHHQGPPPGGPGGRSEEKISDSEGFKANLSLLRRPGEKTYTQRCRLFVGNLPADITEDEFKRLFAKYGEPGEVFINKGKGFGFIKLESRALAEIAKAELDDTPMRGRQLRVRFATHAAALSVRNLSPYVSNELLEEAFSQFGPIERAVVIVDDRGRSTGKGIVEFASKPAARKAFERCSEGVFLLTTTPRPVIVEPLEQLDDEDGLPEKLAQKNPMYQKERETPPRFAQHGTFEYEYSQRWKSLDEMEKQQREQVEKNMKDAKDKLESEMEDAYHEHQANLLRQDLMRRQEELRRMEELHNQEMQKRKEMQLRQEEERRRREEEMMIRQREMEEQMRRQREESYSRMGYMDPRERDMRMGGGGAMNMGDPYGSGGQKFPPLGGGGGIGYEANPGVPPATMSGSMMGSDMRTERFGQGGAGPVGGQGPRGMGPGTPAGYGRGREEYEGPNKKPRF

[4] = molecular target: T2, PSF (polypyrimidine tract-binding protein-associated splicing factor), endogenous (human (endogenous in HRMECs)); experiment: co-IP; antibodies against PSF incubated with nuclear cell lysates from hypoxia-treated HRMECs; blot for PSF, Hakai and HIF-1α
[5] = molecular target: T2, PSF (polypyrimidine tract-binding protein-associated splicing factor), endogenous (human (endogenous in HRMECs)); experiment: co-IP; endogenous proteins; HRMECs exposed to hypoxia (3 h, or a time course of 30 to 150 min); RIPA lysis; total cell lysates precipitated with anti-PSF antibody and protein G/A-Sepharose; blot with anti-HIF-1α, anti-PSF or anti-Hakai; cells untreated or transfected with scrambled siRNA, PSF siRNA or pcDNA-His-PSF
[6] = molecular target: T1, His-tagged PSF (polypyrimidine tract-binding protein-associated splicing factor); experiment: co-IP; as a3, but cells without hypoxia stimulation
[7] = substrate: T3, PSF (polypyrimidine tract-binding protein-associated splicing factor), endogenous (human (endogenous in HRMECs)) (UniProt P23246); experiment: as above
T3 sequence: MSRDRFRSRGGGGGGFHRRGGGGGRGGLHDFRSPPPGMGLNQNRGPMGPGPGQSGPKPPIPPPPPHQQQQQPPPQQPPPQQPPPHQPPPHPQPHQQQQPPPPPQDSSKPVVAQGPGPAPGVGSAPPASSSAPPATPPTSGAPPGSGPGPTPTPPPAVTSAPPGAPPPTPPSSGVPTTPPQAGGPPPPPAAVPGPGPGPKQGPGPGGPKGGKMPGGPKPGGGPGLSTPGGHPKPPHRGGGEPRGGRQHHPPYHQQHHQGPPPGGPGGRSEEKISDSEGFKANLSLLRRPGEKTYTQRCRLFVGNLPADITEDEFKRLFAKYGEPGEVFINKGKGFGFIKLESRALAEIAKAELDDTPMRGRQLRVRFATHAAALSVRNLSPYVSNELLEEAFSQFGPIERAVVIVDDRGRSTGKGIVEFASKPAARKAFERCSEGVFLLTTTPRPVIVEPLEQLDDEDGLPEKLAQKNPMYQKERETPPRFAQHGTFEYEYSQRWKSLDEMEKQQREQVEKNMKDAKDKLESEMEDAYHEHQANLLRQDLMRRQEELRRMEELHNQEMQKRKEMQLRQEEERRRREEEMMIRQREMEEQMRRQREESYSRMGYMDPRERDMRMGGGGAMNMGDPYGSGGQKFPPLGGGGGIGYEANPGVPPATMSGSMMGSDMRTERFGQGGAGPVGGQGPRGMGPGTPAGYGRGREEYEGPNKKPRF

[8] = substrate: T3, ; experiment: co-IP; as a5, but nuclear cell lysates from control HRMECs (no hypoxia); remark: listed apart in the source
[9] = substrate: T3, ; experiment: co-IP; antibodies against PSF incubated with nuclear cell lysates from hypoxia-treated HRMECs; blot for PSF, Hakai and HIF-1α; remark: listed apart in the source
[10] = molecular target: T1, His-tagged PSF (polypyrimidine tract-binding protein-associated splicing factor); experiment: co-IP; endogenous proteins; HRMECs exposed to hypoxia (3 h, or a time course of 30 to 150 min); RIPA lysis; total cell lysates precipitated with anti-PSF antibody and protein G/A-Sepharose; blot with anti-HIF-1α, anti-PSF or anti-Hakai; cells untreated or transfected with scrambled siRNA, PSF siRNA or pcDNA-His-PSF
[11] = substrate: T3, ; experiment: as above; remark: listed apart in the source

HA-tagged HIF-1α (hypoxia-inducible factor-1 alpha) (from UniProt Q16665 1-826)
binding [1]: no binding | binding [2]: binds

HIF-1α (hypoxia-inducible factor-1 alpha), endogenous (from UniProt Q16665 1-826)
binding [3]: no binding (condition: cells without hypoxia (control)) | binding [4]: binds | binding [5]: binds

B1: Hakai (E3 ubiquitin ligase), endogenous (protein, UniProt Q75N03 1-491)
chain: MDHTDNELQGTNSSGSLGGLDVRRRIPIKLISKQANKAKPAPRTQRTINRMPAKAPPGDEEGFDYNEEERYDCKGGELFANQRRFPGHLFWDFQINILGEKDDTPVHFCDKCGLPIKIYGRMIPCKHVFCYDCAILHEKKGDKMCPGCSDPVQRIEQCTRGSLFMCSIVQGCKRTYLSQRDLQAHINHRHMRAGKPVTRASLENVHPPIAPPPTEIPERFIMPPDKHHMSHIPPKQHIMMPPPPLQHVPHEHYNQPHEDIRAPPAELSMAPPPPRSVSQETFRISTRKHSNLITVPIQDDSNSGAREPPPPAPAPAHHHPEYQGQPVVSHPHHIMPPQQHYAPPPPPPPPISHPMPHPPQAAGTPHLVYSQAPPPPMTSAPPPITPPPGHIIAQMPPYMNHPPPGPPPPQHGGPPVTAPPPHHYNPNSLPQFTEDQGTLSPPFTQPGGMSPGIWPAPRGPPPPPRLQGPPSQTPLPGPHHPDQTRYRPYYQ
binding [6]: no binding (condition: cells without hypoxia) | binding [7]: no binding (condition: cells without hypoxia) | binding [8]: no binding (condition: cells without hypoxia (control)) | binding [9]: binds | binding [10]: binds | binding [11]: binds
